Measured values reported in PubChem BioAssay AID2551 (National Center for Advancing Translational Sciences (NCATS), 2010).
Among all 310,000 compounds or so, about 17,000 (5.5%) were called active. The shares of active, inactive and inconclusive entries below differ from those in the screen. Calls come from the whole dose curve; as a rule, active = well fitted inhibition curve with a large enough effect; inconclusive = small, poorly fitted or top-dose-only effect, or effect the other way; inactive = no such curve, though single readings can be large or run the other way. A potency beside an inconclusive call is a rough fit, not a confirmed value.

By UniProt entry, the sequences of proteins in these tests, tags left out. Where a name states a change or a piece, a line headed by the entry shows the natural chain unless it says otherwise.
UniProt P51450: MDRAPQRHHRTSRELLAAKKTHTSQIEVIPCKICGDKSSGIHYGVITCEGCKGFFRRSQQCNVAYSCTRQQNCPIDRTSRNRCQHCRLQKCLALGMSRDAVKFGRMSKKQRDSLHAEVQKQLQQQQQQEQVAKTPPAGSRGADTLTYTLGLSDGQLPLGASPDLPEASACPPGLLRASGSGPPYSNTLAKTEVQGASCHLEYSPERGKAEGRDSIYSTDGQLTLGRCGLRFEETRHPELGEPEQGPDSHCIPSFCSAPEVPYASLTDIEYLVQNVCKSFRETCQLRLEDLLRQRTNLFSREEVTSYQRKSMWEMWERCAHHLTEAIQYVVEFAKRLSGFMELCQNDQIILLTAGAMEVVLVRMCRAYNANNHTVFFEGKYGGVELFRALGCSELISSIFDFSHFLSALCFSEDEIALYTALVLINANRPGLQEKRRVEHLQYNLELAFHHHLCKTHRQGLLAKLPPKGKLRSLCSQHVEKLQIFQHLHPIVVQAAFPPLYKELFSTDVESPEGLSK

Each compound was assayed against Nuclear receptor ROR-gamma (Mus musculus) (UniProt P51450) (assay: qHTS for inhibitors of ROR gamma transcriptional activity). Settings: Drosophila S2 Gal4-RORgamma UAS-luciferase reporter, 20 h; activity change, negative = inhibition: at 53.6 µM (top of the series).
In short: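 Stably transfected Drosophila Schneider cells are the test system, with ROR gamma fused to Gal4 and luciferase under UAS control; luminescence is read after 20 hr of 700 uM copper sulfate induction at ambient temperature.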
% is set by controls: 0 for no effect and ±100 for the full control effect; potency is the fitted concentration of half-maximal effect.
Note: nearly all actives have a fitted effect of over 60% in size.

Potency, inactive:
C[C@@H]1C=C[C@](Cc2ccccc2)(C(=O)NCC2CC2)N1C(=O)c1ccccc1
COc1ccc([C@@H]2CC(=O)c3c(O)cc(O)cc3O2)cc1O

Potency, active:
CC(=O)Oc1cc2c(cc1Cl)C1(CC(c3ccccc3Cl)O2)CC(C)(C)NC(=S)N1 (stereo unspecified) 10 µM
CC(=O)Nc1ccc(NC(=O)COC(=O)/C(=C/c2ccccc2)n2nnnc2C)cc1 15.8 µM
C=CCn1c(=S)[nH]c2cc(-c3ccccc3)sc2c1=O 1 µM
CN(c1ccccc1)S(=O)(=O)c1ccc(C(=O)Nc2nnc(-c3ccc(F)cc3)o2)cc1 1 µM
CCOc1ccc(NC(=S)Nc2ccc(Br)cc2Cl)cc1 14.1 µM
Cc1ccc(NC(=S)Nc2cccc3ccccc23)cc1 2 µM
C=CCn1c(C(CCCC)CC(O)COCC(C)C)n[nH]c1=S (stereo unspecified) 10 µM
O=C1N/C(=N/N=C/c2ccco2)SC1Cc1ccccc1 (stereo unspecified) 1 µM
CCOP(=O)(OCC)C(NC(=O)Nc1ccccc1)c1ccccc1 (stereo unspecified) 11.2 µM
CC(/C=N\NC(=O)c1cc(C)oc1C)=C\c1ccccc1 6.31 µM
O=C(N/N=C1/CC2CCC1C2)c1cc2ccccc2cc1O (stereo unspecified) 0.891 µM
COc1ccc2c(c1)c(C(=O)N/N=C/c1cccs1)c(C)n2C 15.8 µM
N#CCCN(C(=O)CCl)c1cccc(Cl)c1 12.6 µM
Cn1cccc1Cc1nnc(SCC(=O)Nc2nccs2)n1CCc1ccccc1 17.8 µM
Cc1cc(C(=O)CN2CCC(C)CC2)c(C)n1-c1ccccc1F 5.62 µM
Cc1ccc(C(=O)Nc2cnc3ccccc3c2)cc1 3.16 µM
CCOc1ccc(-c2n[nH]c(C)c2Oc2ccccc2OC)c(O)c1 2.24 µM
CCOC(=O)[C@@H]1[C@H]2COc3ccccc3[C@@H]2N2C(=O)N(c3ccccc3)C(=O)[C@@]12C 12.6 µM

Potency, inconclusive:
O=C(NC1CCS(=O)(=O)C1)c1cccc(S(=O)(=O)N2CCOCC2)c1 (stereo unspecified) 0.708 µM [inhibitor, single point]
c1ccc(-c2csc3ncnc(N4CCc5ccccc5C4)c23)cc1 15.8 µM [inhibitor, single point]
COCc1nnc(NC(=O)CSc2ccc(C)cc2)s1 35.5 µM [inhibitor, single point]
COc1cccc(C(=O)Nc2ccc(S(=O)(=O)Nc3cc(C)nc(C)n3)cc2)c1 15.8 µM [inhibitor, single point]
O=C(C1CCN(c2ncnc3c2nc2n3CCCCC2)CC1)N1CCN(c2ccc(F)cc2)CC1 12.6 µM [activator, single point]
CCOc1cc(-c2nc(C)c(C(C)=O)n2O)ccc1OCC(=O)Nc1cccc(C)c1 20 µM [activator, partial curve]
COc1ccc(-c2cc(C(=O)O)c(C)o2)cc1OC 5.62 µM [inhibitor, single point]
NS(=O)(=O)c1ccc(NC(=S)NC(=O)c2ccc3c(c2)OCO3)cc1 10 µM [inhibitor, partial curve]
COc1cccc(-c2nnc(Nc3nc4c(F)cccc4s3)o2)c1 5.62 µM [inhibitor, full curve, poor fit]
CCCCCC1CCC(C(=O)NNC(=S)NCC)CC1 (stereo unspecified) 2 µM [inhibitor, full curve]
N#CCc1c(C#N)c(N)nc(N2CCN(S(=O)(=O)c3ccccc3)CC2)c1C#N 35.5 µM [activator, single point]
COc1cccc(CN(C)C(=O)c2cc(COc3ccc4ncccc4c3)on2)c1 31.6 µM [inhibitor, single point]
CC(=O)CSc1nnc(Cc2ccc3c(c2)OCO3)o1 0.251 µM [inhibitor, full curve, poor fit]
COc1ccc(CC(=O)NNC(=S)Nc2ccccc2)cc1Cl 35.5 µM [inhibitor, single point]
Cc1ccc(C(C)NC(=O)/C(C#N)=C\c2c(C)[nH]c3ccccc23)cc1 (stereo unspecified) 14.1 µM [activator, single point]
CC1Cc2cc(/C(O)=C3/C(=O)C(=O)N(Cc4ccco4)C3c3cccs3)ccc2O1 (stereo unspecified) 17.8 µM [activator, partial curve]
COc1cc(/C=C/C(=O)OCC(=O)Nc2cccc(Oc3ccccc3)c2)ccc1O 35.5 µM [activator, single point]
Cc1cc(/C=C(/C#N)c2cccc(F)c2)c(C)n1-c1cccnc1 14.1 µM [activator, single point]
COc1ccccc1N1CCN(C(=O)c2ccc3c(=O)n(Cc4ccc5c(c4)OCO5)c(=O)[nH]c3c2)CC1 10 µM [activator, partial curve]
CCSC1=C(C#N)C(c2ccccc2Cl)CC(=O)N1 (stereo unspecified) 3.16 µM [activator, partial curve]
Cc1ccccc1C(=O)Nc1ccc(C(=O)NNC(=O)CCCOc2ccc(Cl)cc2Cl)cc1 35.5 µM [inhibitor, single point]
CCN(CC(=O)NCc1ccc(F)cc1)C(=O)/C=C/c1ccc(S(=O)(=O)N(CC)CC)cc1 31.6 µM [activator, single point]
O=C(CCc1ccccc1)Nc1cc(Cl)ccc1O 11.2 µM [activator, single point]
CN(CCc1ccccn1)C1CC(=O)N(c2ccc(Cl)cc2)C1=O (stereo unspecified) 35.5 µM [inhibitor, single point]
COc1ccc(NC(=O)NNC(=O)COc2cc(C)c(Cl)c(C)c2)c(OC)c1 11.2 µM [inhibitor, partial curve]
CCOC(=O)C1=C(C)NC(C)=C(C(=O)OCC)C1/C=C/c1ccccc1OC 17.8 µM [activator, single point]
N#Cc1cc(C#N)c(N2CCN(c3cccc(Cl)n3)CC2)nc1N 5.62 µM [activator, single point]
O=c1oc(-c2ccco2)nc2sc3c(c12)CCCC3 3.16 µM [activator, single point]
CCCCCCCCCCCCCCCC[n+]1ccc(C(N)=O)cc1 15.8 µM [activator, single point]
C=CCSc1nc2ccccc2n1S(=O)(=O)c1ccc(C)cc1 12.6 µM [activator, single point]
Cc1ccc(Nc2nc(N)c([N+](=O)[O-])c(NCc3ccco3)n2)cc1C 11.2 µM [activator, partial curve]
Cc1cccc(NS(=O)(=O)c2ccc(C)c(C(N)=O)c2)c1 11.2 µM [activator, partial curve]
Cc1cccc(C(=O)NNC2=CC(=O)CC(C)(C)C2)c1O 35.5 µM [inhibitor, single point]
CC1(C)Cc2c(C#N)c(N3CCN(C(=O)c4ccccc4Cl)CC3)nc(-c3ccco3)c2CS1 2.51 µM [activator, full curve]
O=c1c(C=NCCCO)c(-c2ccccc2)[nH]n1-c1nc2ccccc2s1 35.5 µM [inhibitor, single point]

Activity change, negative = inhibition, inactive:
CC=C(/C(=C/C)c1ccc(O)cc1)c1ccc(O)cc1 -1.76% [at 2.98 µM]
CC(C)CCNC(=O)CN(Cc1cccs1)C(=O)CCC(=O)Nc1nccs1 -17.3%
COc1cc(NC(=O)CCC(=O)c2cccs2)cc(OC)c1 -15.2%
O=c1c[n+]([O-])c2ccccc2n1OCc1c(F)cccc1F 6.48%
COC/C=C/C1=CC2=CC(=O)C(C)(OC(=O)CCc3ccccc3)C(=O)C2=CO1 (stereo unspecified) -11.4%
Cc1ccc(OCC(=O)Nc2ccc(Cl)cc2)c(-n2nc3ccccc3n2)c1 2.95%
CCc1cc2c(=O)c(-c3nc4ccccc4n3C)c(C)oc2c(CN2CCN(CCO)CC2)c1O -7.04%
O=c1[nH]c2ccccc2nc1-c1c[nH]c2ccccc12 0.929%
COc1ccc(CCNC(=O)CCN2C(=O)c3ccccc3C2=O)cc1OC 0.981%
FC(F)(F)c1ccccc1-c1nc(-c2ccncc2)no1 28.7%
CCn1c(=O)c2ccccc2n(CC(=O)N2CCCc3ccccc32)c1=O -16%
COC(=O)NCc1ccc2c(c1)OCO2 -5.13%
CC(CCC(=O)O)C1CCC2C3C(=O)C[C@@H]4CC(=O)CC[C@@]4(C)C3CC(=O)[C@]12C (stereo partly specified) -19.2%
O=C(CSCc1ccccc1)Nc1ccccc1 9.06%
COc1cc(CNCCSc2nnnn2C)cc(Br)c1OCc1ccc(F)cc1 1.47%
CNC(=O)C1CCN(S(=O)(=O)c2c(C)noc2/C=C/c2ccc(OC)cc2)CC1 -17.8%
C/C(CCC(=O)OC[C@@H]1O[C@H](C#Cc2ccccc2)C=C[C@@H]1Oc1ccc(C)cc1)=N/O[C@@H](C)CN1CCCc2nc(C)c(C)cc21 -4.47% [at 10 µM]
Nc1nnc(CC(=O)Nc2ccccc2)s1 -5.34%
COc1ccc(OC)c(C(=O)c2c(C)oc3cc([N+](=O)[O-])c(O)c([N+](=O)[O-])c23)c1 18.2%
CCOC(=O)c1cc(NC(=O)Nc2ccc(OC)c(OC)c2)c(C)nc1C -0.628%
CCOc1ccc2nc(NC(=O)CSc3nc4c(c(=O)n(C)c(=O)n4C)n3C(C)C)sc2c1 1.14%

Quoted at random: three entries already listed
Activity change, negative = inhibition, inactive:
COc1cc(NC(=O)CCC(=O)c2cccs2)cc(OC)c1 -15.2%
O=c1c[n+]([O-])c2ccccc2n1OCc1c(F)cccc1F 6.48%
CNC(=O)C1CCN(S(=O)(=O)c2c(C)noc2/C=C/c2ccc(OC)cc2)CC1 -17.8%
